Results published in the supplement of paper PMC10849652.
Some of the results follow.

Amino acid sequences for entries named in this document (tags omitted). A change or cut given only in a name is not applied to a line headed by its entry.
UniProt P48147: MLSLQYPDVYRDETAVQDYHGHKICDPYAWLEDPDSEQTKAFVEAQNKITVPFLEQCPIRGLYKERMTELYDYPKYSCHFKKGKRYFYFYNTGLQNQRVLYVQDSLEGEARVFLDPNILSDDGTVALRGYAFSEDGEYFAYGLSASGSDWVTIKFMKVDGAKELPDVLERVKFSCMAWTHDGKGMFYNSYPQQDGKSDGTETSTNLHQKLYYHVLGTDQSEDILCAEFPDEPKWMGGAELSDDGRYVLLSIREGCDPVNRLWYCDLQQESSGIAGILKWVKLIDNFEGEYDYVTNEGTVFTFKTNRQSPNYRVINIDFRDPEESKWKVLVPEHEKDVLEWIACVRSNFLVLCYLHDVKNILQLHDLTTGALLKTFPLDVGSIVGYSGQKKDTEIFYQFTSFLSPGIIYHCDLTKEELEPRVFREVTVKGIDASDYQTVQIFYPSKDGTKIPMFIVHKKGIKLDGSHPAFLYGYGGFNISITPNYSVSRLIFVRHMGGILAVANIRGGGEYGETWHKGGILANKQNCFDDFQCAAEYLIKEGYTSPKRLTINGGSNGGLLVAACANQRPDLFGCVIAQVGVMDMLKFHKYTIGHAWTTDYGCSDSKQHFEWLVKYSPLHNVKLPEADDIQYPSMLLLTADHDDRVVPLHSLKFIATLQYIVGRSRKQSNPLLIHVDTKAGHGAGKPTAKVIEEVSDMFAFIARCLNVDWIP
UniProt O43741: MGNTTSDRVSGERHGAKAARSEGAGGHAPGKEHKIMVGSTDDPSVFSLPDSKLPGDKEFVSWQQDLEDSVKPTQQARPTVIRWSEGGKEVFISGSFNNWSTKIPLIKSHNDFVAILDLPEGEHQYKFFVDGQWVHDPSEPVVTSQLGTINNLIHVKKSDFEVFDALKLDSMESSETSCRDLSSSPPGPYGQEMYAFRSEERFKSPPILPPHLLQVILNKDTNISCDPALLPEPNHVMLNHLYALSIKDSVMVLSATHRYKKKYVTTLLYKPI
UniProt Q16537, whole entry, looked up: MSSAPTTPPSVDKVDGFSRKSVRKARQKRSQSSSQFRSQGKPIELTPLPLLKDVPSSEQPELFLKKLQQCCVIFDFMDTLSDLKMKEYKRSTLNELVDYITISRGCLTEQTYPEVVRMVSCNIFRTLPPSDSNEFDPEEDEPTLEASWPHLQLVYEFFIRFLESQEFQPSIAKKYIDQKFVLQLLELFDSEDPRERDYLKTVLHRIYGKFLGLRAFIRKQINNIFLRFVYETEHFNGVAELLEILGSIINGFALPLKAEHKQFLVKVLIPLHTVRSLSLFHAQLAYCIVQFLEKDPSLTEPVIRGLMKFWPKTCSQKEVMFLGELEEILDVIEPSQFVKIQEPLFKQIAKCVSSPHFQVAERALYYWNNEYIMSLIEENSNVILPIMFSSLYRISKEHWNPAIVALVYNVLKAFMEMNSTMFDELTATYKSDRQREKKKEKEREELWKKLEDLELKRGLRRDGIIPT
UniProt Q6NYC8: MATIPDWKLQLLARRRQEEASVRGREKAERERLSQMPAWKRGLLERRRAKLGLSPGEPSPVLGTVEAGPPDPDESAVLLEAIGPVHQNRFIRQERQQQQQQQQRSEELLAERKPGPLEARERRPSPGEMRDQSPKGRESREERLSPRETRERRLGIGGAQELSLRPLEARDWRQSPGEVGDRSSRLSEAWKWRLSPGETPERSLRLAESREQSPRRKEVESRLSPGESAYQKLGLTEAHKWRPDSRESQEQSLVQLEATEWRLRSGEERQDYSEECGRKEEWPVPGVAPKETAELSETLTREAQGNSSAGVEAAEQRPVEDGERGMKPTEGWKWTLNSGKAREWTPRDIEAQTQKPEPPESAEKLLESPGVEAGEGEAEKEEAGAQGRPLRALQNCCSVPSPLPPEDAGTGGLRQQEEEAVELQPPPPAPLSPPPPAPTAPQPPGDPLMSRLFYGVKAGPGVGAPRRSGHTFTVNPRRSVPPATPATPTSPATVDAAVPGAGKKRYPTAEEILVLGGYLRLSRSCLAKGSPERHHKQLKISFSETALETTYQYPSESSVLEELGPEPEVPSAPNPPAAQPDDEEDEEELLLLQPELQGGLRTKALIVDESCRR
UniProt P10644, whole entry, looked up: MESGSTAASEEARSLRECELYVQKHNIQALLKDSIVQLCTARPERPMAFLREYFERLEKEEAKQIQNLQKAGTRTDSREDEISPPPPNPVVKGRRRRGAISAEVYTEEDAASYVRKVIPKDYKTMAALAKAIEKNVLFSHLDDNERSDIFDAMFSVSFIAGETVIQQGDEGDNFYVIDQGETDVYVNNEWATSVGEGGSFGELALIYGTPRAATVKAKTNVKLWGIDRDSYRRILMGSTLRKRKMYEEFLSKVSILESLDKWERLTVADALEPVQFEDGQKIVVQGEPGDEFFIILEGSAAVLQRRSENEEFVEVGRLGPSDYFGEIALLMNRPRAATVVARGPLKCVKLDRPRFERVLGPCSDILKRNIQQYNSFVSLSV
UniProt P50336: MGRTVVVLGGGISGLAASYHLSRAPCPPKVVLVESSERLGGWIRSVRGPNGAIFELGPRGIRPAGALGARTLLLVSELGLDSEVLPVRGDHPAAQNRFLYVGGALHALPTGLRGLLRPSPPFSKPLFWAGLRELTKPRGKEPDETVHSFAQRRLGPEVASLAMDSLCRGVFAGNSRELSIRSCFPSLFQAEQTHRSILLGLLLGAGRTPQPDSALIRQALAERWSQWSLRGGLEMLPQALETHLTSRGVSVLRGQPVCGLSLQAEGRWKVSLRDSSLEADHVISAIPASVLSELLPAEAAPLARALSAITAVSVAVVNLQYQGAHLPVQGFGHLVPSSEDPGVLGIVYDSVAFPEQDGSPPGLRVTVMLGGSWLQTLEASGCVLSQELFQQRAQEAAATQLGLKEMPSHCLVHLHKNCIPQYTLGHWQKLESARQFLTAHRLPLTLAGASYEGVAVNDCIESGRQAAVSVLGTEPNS
UniProt Q15435: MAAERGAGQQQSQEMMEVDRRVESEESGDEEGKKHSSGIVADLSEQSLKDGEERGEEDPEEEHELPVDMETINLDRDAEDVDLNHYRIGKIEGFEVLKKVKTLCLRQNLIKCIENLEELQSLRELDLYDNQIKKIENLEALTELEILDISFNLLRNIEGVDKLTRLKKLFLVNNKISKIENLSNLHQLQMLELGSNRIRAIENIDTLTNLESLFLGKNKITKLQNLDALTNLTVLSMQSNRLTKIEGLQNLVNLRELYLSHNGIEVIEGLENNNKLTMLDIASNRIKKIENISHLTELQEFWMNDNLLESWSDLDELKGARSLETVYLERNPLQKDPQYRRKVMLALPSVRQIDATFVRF
UniProt P49643: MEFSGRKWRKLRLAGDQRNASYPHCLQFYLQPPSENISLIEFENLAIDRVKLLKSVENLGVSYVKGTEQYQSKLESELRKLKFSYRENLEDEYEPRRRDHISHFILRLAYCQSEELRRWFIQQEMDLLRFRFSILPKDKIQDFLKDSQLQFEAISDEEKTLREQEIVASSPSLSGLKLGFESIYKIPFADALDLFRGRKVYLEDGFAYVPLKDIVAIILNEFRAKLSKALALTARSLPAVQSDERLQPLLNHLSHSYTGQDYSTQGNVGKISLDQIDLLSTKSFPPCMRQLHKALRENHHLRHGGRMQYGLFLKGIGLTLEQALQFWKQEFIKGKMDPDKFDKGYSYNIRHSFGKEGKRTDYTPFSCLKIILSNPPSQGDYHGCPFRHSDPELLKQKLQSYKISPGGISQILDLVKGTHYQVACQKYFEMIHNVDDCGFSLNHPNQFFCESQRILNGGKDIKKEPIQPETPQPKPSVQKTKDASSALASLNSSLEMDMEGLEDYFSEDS
UniProt Q6IN85: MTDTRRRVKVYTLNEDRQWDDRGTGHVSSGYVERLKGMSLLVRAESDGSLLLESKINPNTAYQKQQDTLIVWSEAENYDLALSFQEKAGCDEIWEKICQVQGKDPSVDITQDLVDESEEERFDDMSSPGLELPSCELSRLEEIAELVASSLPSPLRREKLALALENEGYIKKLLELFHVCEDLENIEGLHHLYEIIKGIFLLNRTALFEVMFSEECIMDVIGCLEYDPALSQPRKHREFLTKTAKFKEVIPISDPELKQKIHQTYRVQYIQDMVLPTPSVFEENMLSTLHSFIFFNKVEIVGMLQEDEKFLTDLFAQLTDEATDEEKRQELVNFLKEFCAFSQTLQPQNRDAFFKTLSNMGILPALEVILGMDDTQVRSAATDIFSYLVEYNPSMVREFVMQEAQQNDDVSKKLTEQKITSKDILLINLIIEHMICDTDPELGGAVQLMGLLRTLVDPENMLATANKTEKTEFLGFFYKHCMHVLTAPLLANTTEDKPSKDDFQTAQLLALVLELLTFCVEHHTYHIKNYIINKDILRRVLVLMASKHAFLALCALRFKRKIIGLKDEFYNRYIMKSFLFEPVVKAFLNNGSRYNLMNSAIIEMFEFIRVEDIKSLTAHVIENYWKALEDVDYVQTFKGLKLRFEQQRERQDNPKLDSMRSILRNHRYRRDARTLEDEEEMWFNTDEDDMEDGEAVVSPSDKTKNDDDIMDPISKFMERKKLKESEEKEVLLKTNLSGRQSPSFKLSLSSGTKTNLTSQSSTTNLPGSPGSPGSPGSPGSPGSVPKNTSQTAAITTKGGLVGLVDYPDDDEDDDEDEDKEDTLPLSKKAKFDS
UniProt O94806: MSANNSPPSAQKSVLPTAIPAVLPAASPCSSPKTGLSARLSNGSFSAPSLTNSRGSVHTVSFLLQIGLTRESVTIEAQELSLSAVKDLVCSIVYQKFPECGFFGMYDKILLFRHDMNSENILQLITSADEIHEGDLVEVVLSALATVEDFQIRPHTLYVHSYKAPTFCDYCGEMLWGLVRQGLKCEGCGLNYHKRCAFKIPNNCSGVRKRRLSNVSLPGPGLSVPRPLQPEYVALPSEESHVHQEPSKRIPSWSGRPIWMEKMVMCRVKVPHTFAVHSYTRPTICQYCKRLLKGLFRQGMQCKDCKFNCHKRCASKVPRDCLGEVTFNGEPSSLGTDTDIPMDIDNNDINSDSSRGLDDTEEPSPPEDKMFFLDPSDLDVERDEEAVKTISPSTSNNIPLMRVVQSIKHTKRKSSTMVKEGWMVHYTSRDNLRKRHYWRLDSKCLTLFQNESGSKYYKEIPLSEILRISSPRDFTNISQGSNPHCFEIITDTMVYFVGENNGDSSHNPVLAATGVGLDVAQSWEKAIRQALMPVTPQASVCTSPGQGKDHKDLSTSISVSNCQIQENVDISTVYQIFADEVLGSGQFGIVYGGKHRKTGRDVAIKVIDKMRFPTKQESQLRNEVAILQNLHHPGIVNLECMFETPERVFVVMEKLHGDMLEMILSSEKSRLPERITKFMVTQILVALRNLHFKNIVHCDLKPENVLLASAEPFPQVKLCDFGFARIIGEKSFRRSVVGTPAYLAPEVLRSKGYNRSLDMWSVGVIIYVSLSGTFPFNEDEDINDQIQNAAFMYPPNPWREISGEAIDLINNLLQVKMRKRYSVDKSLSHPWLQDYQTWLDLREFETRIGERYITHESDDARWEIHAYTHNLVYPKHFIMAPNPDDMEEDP
UniProt Q14558: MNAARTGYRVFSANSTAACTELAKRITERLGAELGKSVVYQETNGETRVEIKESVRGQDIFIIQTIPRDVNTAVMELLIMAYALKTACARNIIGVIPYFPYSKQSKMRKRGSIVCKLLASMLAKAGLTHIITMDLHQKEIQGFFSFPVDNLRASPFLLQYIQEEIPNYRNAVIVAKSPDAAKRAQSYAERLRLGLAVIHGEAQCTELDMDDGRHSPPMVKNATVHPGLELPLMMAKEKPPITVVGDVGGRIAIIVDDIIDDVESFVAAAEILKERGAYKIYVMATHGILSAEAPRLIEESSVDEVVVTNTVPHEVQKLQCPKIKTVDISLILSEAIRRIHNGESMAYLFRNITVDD
UniProt P30044: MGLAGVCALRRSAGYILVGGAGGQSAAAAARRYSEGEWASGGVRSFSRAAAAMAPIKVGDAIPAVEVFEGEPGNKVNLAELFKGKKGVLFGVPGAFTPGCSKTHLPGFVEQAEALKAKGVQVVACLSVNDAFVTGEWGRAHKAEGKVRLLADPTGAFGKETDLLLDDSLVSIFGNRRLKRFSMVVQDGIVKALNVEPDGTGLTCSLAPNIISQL
UniProt P78395, whole entry, looked up: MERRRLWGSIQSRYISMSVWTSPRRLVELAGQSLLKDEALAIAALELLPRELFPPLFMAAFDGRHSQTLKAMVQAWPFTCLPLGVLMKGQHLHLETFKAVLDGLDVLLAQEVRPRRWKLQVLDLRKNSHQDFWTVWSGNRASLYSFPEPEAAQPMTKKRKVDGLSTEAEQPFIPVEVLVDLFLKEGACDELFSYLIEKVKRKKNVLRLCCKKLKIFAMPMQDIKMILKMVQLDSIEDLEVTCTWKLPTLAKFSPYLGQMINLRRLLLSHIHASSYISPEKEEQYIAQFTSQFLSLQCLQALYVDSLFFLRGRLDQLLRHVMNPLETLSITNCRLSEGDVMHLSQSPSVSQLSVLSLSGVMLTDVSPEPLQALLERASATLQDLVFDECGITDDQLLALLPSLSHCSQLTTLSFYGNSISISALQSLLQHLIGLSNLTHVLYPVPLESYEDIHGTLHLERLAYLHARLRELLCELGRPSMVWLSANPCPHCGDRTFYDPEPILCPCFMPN

Columns and labels:
Test in all cases: log2 fold change, soluble protein after heating vs DMSO (PISA); higher = thermal stabilisation; K562 cells, 10 uM, 30 min; active = over 0.2 and 3.5 SD of the protein, either way, in both replicates (recomputed)
[1] = compound: NC(=O)Nc1cc(-c2cccc(F)c2)sc1C(=O)N[C@H]1CCCNC1
Method in brief: (§1)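 Quantification of soluble protein used TMTpro 16plex LC-MS/MS, with channel sums equalised. Samples were the supernatant after 21,000xg for 90 min of pooled aliquots from K562 cells (2×10^6 cells/mL) treated with 10 μM compound for 30 min, heated for 3 min over 48°C-58°C, and extracted in PBS with 0.5% NP-40 at 4°C. Values, from duplicates, describe thermal stability against control samples on a log2 fold-change scale.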

[2] = compound: NC(=O)c1cnc(N[C@@H]2CCCC[C@@H]2N)nc1Nc1cccc(-n2nccn2)c1
Method in brief: as §1

[3] = compound: NC1(c2ccc(-c3nc4ccn5c(=O)[nH]nc5c4cc3-c3ccccc3)cc2)CCC1
Method in brief: as §1

[4] = compound: NCC(=O)Nc1ccc(-n2nc(C(F)(F)F)cc2-c2ccc3c(ccc4ccccc43)c2)cc1
Method in brief: as §1

[5] = compound: Nc1ccccc1NC(=O)c1ccc(CNC(=O)OCc2cccnc2)cc1 [entinostat]
Method in brief: as §1

[6] = compound: O=C(CCCCCCC(=O)Nc1ccccc1)NO [vorinostat]
Method in brief: as §1

[7] = compound: O=C(CCCCCCNC(=O)c1cnc(N(c2ccccc2)c2ccccc2Cl)nc1)NO [citarinostat]
Method in brief: as §1

[8] = compound: O=C(O)c1ccc2c(c1)nc(Nc1cccc(Cl)c1)c1ccncc12 [silmitasertib]
Method in brief: as §1

[9] = compound: O=C1NC(=O)C(c2cnc3ccccn23)=C1c1cn2c3c(cc(F)cc13)CN(C(=O)N1CCCCC1)CC2
Method in brief: as §1

[10] = compound: c1cc(OCCN2CCCCC2)cc(-c2n[nH]c3ccc(-c4nnc[nH]4)cc23)c1
Method in brief: as §1

Measured: log2 fold change

PREP (UniProt P48147)
inactive: [1] 0.032 | [2] -0.11 | [3] -0.063 | [4] -0.046 | [5] 0.011 | [6] 0.029 | [7] 0.034 | [8] 0.148 | [9] 0.09 | [10] -0.09

PRKACB isoform 2 (UniProt P22694)
inactive: [1] 0.078 | [2] -0.11 | [3] -0.173 | [4] -0.02 | [5] 0.001 | [6] 0.04 | [7] 0.015 | [8] -0.002 | [9] -0.119 | [10] -0.065

PRKAB2 (UniProt O43741)
inactive: [1] 0.204 | [2] 0.248 | [3] -0.077 | [4] 0.162 | [5] 0.186 | [6] 0.099 | [7] -0.1 | [8] 0.031 | [9] 0.121 | [10] -0.47

Reprinted from above (2 entries):
PRKACB isoform 2 (UniProt P22694)
inactive: [1] 0.078 | [2] -0.11 | [3] -0.173 | [4] -0.02 | [5] 0.001 | [6] 0.04 | [7] 0.015 | [8] -0.002 | [9] -0.119 | [10] -0.065

PRKAB2 (UniProt O43741)
inactive: [1] 0.204 | [2] 0.248 | [3] -0.077 | [4] 0.162 | [5] 0.186 | [6] 0.099 | [7] -0.1 | [8] 0.031 | [9] 0.121 | [10] -0.47

Following part

PPP2R5E (UniProt Q16537)
inactive: [1] 0.015 | [2] -0.039 | [3] -0.078 | [4] -0.09 | [5] -0.021 | [6] 0.118 | [7] 0.058 | [8] -0.014 | [9] -0.016 | [10] 0.163

PPP1R18 (UniProt Q6NYC8)
inactive: [1] -0.015 | [2] -0.034 | [3] -0.02 | [4] -0.045 | [5] -0.025 | [6] -0.009 | [7] 0.009 | [8] 0.026 | [9] -0.225 | [10] -0.054

PRKAR1A (UniProt P10644)
inactive: [1] -0.052 | [2] 0.191 | [3] 0.301 | [4] -0.041 | [5] -0.068 | [6] -0.16 | [7] 0 | [8] 0.166 | [9] 0.063 | [10] -0.04

PPOX (UniProt P50336)
inactive: [1] -0.042 | [2] -0.228 | [3] -0.182 | [4] -0.009 | [5] 0.04 | [6] 0.003 | [7] 0.02 | [8] 0.158 | [9] 0.094 | [10] 0.018

PPP1R7 (UniProt Q15435)
inactive: [1] -0.023 | [2] -0.088 | [3] -0.077 | [4] -0.032 | [5] -0.003 | [6] 0.063 | [7] -0.037 | [8] -0.041 | [9] 0.121 | [10] -0.053

PRIM2 (UniProt P49643)
inactive: [1] -0.035 | [2] -0.141 | [3] -0.16 | [4] -0.061 | [5] 0.058 | [6] 0.098 | [7] 0.135 | [8] 0.033 | [9] -0.096 | [10] -0.018

PPP4R3A (UniProt Q6IN85)
inactive: [1] -0.16 | [2] -0.039 | [3] -0.066 | [4] -0.04 | [5] -0.058 | [6] 0.064 | [7] 0.057 | [8] 0.092 | [9] -0.044 | [10] -0.034

PRKD3 (UniProt O94806)
inactive: [1] -0.565 | [2] -0.263 | [3] -0.285 | [4] -0.213 | [5] 0.34 | [6] 0.096 | [8] 0.021

PRPSAP1 isoform 2 (UniProt Q14558)
inactive: [1] 0.06 | [2] 0.052 | [3] 0 | [4] 0.042 | [5] -0.032 | [6] -0.009 | [7] 0.028 | [8] 0.01 | [9] 0.006 | [10] -0.026

PRPF8 (UniProt Q6P2Q9)
inactive: [1] 0.02 | [2] -0.011 | [3] 0.023 | [4] 0.022 | [5] -0.008 | [6] -0.02 | [7] -0.03 | [8] 0.043 | [9] 0.061 | [10] -0.157

PRDX5 (UniProt P30044)
inactive: [1] -0.014 | [2] -0.009 | [3] -0.016 | [4] -0.008 | [5] 0.014 | [6] -0.014 | [7] 0.046 | [8] -0.004 | [9] -0.029 | [10] 0.018

PRAME (UniProt P78395)
inactive: [1] 0.17 | [2] -0.06 | [3] 0.002 | [4] 0.029 | [5] 0.023 | [6] 0.089 | [7] 0.076 | [8] 0.075 | [9] 0.062 | [10] -0.1
